Results as given in PubChem BioAssay AID540276 (National Center for Advancing Translational Sciences (NCATS), 2011).
The whole screen tested about 300,000 compounds, of which about 5,400 (1.8%) were called active. Inconclusive results, whose numbers are uncertain, are shown with a selection of clear calls. The call rests on the fitted dose curve; tested in HEK293 cells. Potencies of inconclusive entries are doubtful fits and often do not repeat. A structure can be active in one record and inactive in another.

experiment: qHTS for inhibitors of binding or entry into cells for Marburg Virus; conditions: Marburg virus pseudotyped entry inhibition, cell reporter; series mostly up to 37.8 µM
Potency means the concentration at half of the fitted maximal effect.

Structure (SMILES)	Potency
CCOC(=O)CSc1nc2ccccc2c(=O)n1-c1cccc(C)c1	inactive
CCOC(=O)c1nnc(-c2ccccc2)nc1NCc1ccc(Cl)cc1	inconclusive: 18.3 µM [inhibitor, single point]
COC(=O)c1[nH]c2ccc(Br)cc2c1NC(=O)CN1CCN(C2CCCCC2)CC1	active: 6.51 µM
O=[N+]([O-])c1cccc(/C=N/n2c(-c3cccnc3)n[nH]c2=S)c1	inconclusive: 35.5 µM [activator, single point]
O=C(COC(=O)/C=C/c1ccc(Cl)cc1)Nc1ccc2[nH]c(=O)[nH]c2c1	inconclusive: 10 µM [inhibitor, partial curve, poor fit]
Cc1cc(-c2ccccc2)nc(Oc2ccc(C(C)(C)C)cc2)c1S(C)(=O)=O	inconclusive: 15.8 µM [inhibitor, partial curve, poor fit]
O=C(CSc1nnc(-c2c[nH]c3ccccc23)o1)N1c2ccccc2CCc2ccccc21	inconclusive: 29.1 µM [inhibitor, single point]
Cc1noc(C)c1S(=O)(=O)N(CCc1ccccc1)Cc1ccccc1	inconclusive: 35.5 µM [inhibitor, single point]
CCNc1cc(N2CCN(C3CCCCC3)CC2)c2noc3c2c1C(=O)c1ccccc1-3	inconclusive: 25.1 µM [activator, single point]
O=C(CSc1c2c(nc3cc(Cl)ccc13)CCCC2)NCCN1CCOCC1	inconclusive: 22.4 µM [inhibitor, single point]
CCC(C)c1ccc(NC(=S)NCc2ccccc2OC)cc1 (centres undefined)	inconclusive: 35.5 µM [inhibitor, single point]
COc1ccc(NC(=O)CCc2ccccc2)cc1S(=O)(=O)N1CCCCC1	inconclusive: 7.08 µM [inhibitor, full curve, poor fit]
Cc1cc(NC(=S)Nc2ccc(C)c(Cl)c2)n[nH]1	inactive
O=C(Cn1cc(S(=O)(=O)c2ccccc2)c(=O)c2cc3c(cc21)OCO3)Nc1ccc(Cl)cc1	inactive
COc1cccc(NC(=O)CN2C(=O)COc3ccc(C)cc32)c1	inconclusive: 11.2 µM [inhibitor, partial curve, poor fit]
CC(C)(C)NC(=O)C(c1ccc(F)cc1)N(Cc1ccco1)C(=O)CCC(=O)Nc1nccs1 (centres undefined)	inconclusive: 0.316 µM [inhibitor, full curve, poor fit]
COC(=O)CCCN=C1SCCN1Cc1ccccc1	inactive
COc1ccc(CC(NC(C)=O)C(=O)NC2CCN(C(=O)c3ccncc3)CC2)cc1OC (centres undefined)	inconclusive: 6.31 µM [inhibitor, single point]
Cc1ccc(S(=O)(=O)CCSC(=N)N)cc1	inconclusive: 35.5 µM [inhibitor, single point]
COc1ccccc1Nc1nnc(SCc2cc(=O)n3ccsc3n2)s1	inconclusive: 35.5 µM [inhibitor, single point]
CC1(C)C([N+](=O)[O-])C(c2ccc(F)cc2)NC(c2ccc(F)cc2)C1[N+](=O)[O-] (centres undefined)	inconclusive: 35.5 µM [inhibitor, single point]
c1ccc(-c2nc(-c3ccc(-c4ccon4)s3)no2)cc1	inactive

Structure (SMILES)	Potency
CC(N)C(=O)OC(C)(C)Cc1ccc(Cl)cc1 (centres undefined)	active: 10 µM
O=C1C=Cc2ccccc2C1=O	inactive
COc1ccc(O)c(C(=O)CC(=O)c2ccncc2)c1	inconclusive: 5.62 µM [activator, single point]
Cc1ccc2nc(-c3ccc(Cl)c(NC(=O)COc4ccc(C(C)C)cc4)c3)oc2c1	inconclusive: 20 µM [activator, partial curve, poor fit]
CC(C)(C)NC(=O)C1CC(=O)N(CCc2ccc(F)cc2)C1 (centres undefined)	inactive
Oc1ccc(O)c2c1C1(Cl)C(Cl)=C(Cl)C2(Cl)C1(Cl)Cl	inconclusive: 10 µM [inhibitor, partial curve, poor fit]
COc1cccc(-c2nc(N3CCCCC3C)c3ccccc3n2)c1O (centres undefined)	inconclusive: 11.2 µM [inhibitor, single point]
Cc1nc(NC(=O)/C=C/c2ccc(Cl)cc2Cl)sc1C(=O)N(C)C	inconclusive: 0.0891 µM [activator, full curve, poor fit]
CC1CCN(c2cc(N3CCN(C(=O)c4ccc(F)c(F)c4)CC3)c([N+](=O)[O-])cc2F)CC1	inconclusive: 2.06 µM [inhibitor, partial curve, poor fit]
Cc1cccc(N(Cc2ccccc2)C(=O)CCl)c1	inconclusive: 1.12 µM [inhibitor, partial curve, poor fit]
CC(C)(C)NS(=O)(=O)c1ccc(NC(=O)CS(=O)(=O)Cc2ccccc2)cc1	inactive
CCOc1ccc(-n2nc(CO)c(C(=O)NCc3cccs3)n2)cc1	inactive
CN(C)c1ccc(C=NNc2ccccn2)c(Cl)c1	inconclusive: 7.08 µM [activator, partial curve, poor fit]
Cc1nc(SC(C)C(=O)Nc2ccccc2Cl)cc(-c2ccccc2)n1 (centres undefined)	inconclusive: 4.47 µM [inhibitor, full curve, poor fit]
NC(=O)NCc1ccc(C(=O)OCc2ccncc2)cc1	inactive
c1ccc(-c2ccc(-c3n(-c4ccccn4)c4ccccc4[n+]3-c3ccccn3)cc2)cc1	inconclusive: 29.1 µM [inhibitor, single point]
COc1ccc(N2C(=O)[C@@H]3[C@@H](C2=O)[C@@H]2C=C[C@H]3C23CC3)c(OC)c1	inactive
CCOC(=O)N/N=C/c1c(F)c(F)c(F)c(F)c1F	inactive
COc1ccc(C(=O)Oc2coc(CSc3nnc(NC(=O)c4cccs4)s3)cc2=O)cc1	inconclusive: 29.1 µM [activator, partial curve, poor fit]
Cc1ccc2cc(CN(C)C(=O)c3cccc(Cl)c3)c(=O)[nH]c2c1	inactive
O=C(CSCc1ccccc1Cl)Nc1ccc2c(c1)OCCO2	inactive
Cc1cc(OC(F)F)ccc1NC(=S)NCCc1ccccc1	inconclusive: 0.631 µM [activator, single point]

Reprinted from the results shown, twelve compounds:
Structure (SMILES)	Potency
Cc1cccc(N(Cc2ccccc2)C(=O)CCl)c1	inconclusive: 1.12 µM [inhibitor, partial curve, poor fit]
CC(C)(C)NS(=O)(=O)c1ccc(NC(=O)CS(=O)(=O)Cc2ccccc2)cc1	inactive
CCOc1ccc(-n2nc(CO)c(C(=O)NCc3cccs3)n2)cc1	inactive
CN(C)c1ccc(C=NNc2ccccn2)c(Cl)c1	inconclusive: 7.08 µM [activator, partial curve, poor fit]
Cc1nc(SC(C)C(=O)Nc2ccccc2Cl)cc(-c2ccccc2)n1 (centres undefined)	inconclusive: 4.47 µM [inhibitor, full curve, poor fit]
NC(=O)NCc1ccc(C(=O)OCc2ccncc2)cc1	inactive
c1ccc(-c2ccc(-c3n(-c4ccccn4)c4ccccc4[n+]3-c3ccccn3)cc2)cc1	inconclusive: 29.1 µM [inhibitor, single point]
COc1ccc(N2C(=O)[C@@H]3[C@@H](C2=O)[C@@H]2C=C[C@H]3C23CC3)c(OC)c1	inactive
CCOC(=O)N/N=C/c1c(F)c(F)c(F)c(F)c1F	inactive
COc1ccc(C(=O)Oc2coc(CSc3nnc(NC(=O)c4cccs4)s3)cc2=O)cc1	inconclusive: 29.1 µM [activator, partial curve, poor fit]
Cc1ccc2cc(CN(C)C(=O)c3cccc(Cl)c3)c(=O)[nH]c2c1	inactive
O=C(CSCc1ccccc1Cl)Nc1ccc2c(c1)OCCO2	inactive
